Laboratory results reported in patent publication US5667764A, “Compounds, compositions and methods for binding bio-affecting substances to surface membranes of bio-particles” (Zynaxis, Inc., priority 1992, dated 1997).

Assay: Retention on artificial surfaces under blood perfusion, all tubing
Conditions: 6 hours blood contact

CCCCCCCCCCCCCCCCCCCCCCN1C(=CC=CC2=[N+](CCCCCCCCCCCCCC)c3ccccc3C2(C)C)C(C)(C)c2cc([125I])ccc21 [Compound 12, N-docosanyl-N'-tetradecyl-5-iodo-3,3,3',3'-tetramethylindocarbocyanine chloride]
Average retention on tubing: > 50%
